Laboratory results reported in publication PMC6925144, “A prospective compound screening contest identified broader inhibitors for Sirtuin 1” (Scientific Reports, 2019).
The full ranking holds about 3,200 compounds; the median of “TSA(without NAD+) / Primary screening (TSA) / delta Tm (K)” is about -0.07, and the highest 2% start at about 0.37. This is one part of the list.

Chains of the proteins cited; added tags and fusions are not shown. Residues count along the entry.
UniProt Q96EB6, 2-747 limits assumed: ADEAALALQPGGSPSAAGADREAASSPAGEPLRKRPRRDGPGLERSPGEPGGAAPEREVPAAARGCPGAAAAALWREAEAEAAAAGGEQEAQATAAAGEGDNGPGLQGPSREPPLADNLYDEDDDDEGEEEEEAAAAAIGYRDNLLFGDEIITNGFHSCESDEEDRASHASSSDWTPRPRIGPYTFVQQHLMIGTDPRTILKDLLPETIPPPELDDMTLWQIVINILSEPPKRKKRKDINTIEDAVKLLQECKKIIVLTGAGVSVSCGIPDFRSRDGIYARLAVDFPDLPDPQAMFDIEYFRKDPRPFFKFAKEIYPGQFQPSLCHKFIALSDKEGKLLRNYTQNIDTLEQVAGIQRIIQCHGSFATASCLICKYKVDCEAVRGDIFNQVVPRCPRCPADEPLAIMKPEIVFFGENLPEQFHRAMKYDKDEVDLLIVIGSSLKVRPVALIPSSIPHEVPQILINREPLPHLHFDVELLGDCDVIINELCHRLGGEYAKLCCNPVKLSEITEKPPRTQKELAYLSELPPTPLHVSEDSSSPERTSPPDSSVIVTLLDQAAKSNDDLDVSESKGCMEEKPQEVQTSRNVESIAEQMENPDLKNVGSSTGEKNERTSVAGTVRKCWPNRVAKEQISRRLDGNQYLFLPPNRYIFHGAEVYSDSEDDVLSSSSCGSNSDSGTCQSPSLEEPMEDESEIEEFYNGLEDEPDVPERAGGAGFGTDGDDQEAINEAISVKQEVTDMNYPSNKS

molecular target: NAD-dependent deacetylase Sirtuin 1 (human, UniProt Q96EB6); assay: primary screen, delta tm; parameters: single well (n = 1); settings: 10 µM
Procedure, shortened: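 Thermal shift of Sirtuin 1 measured without NAD+, compound at 10 µM (n = 1); value is ΔTm, with hits defined as ΔTm > 0.45 K or < −1.5 K. Hits retested at 5, 10, 20 µM (n = 4) and counterscreened on bovine carbonic anhydrase and ABL1 SH2 domain.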

| Compound | TSA(without NAD+) / Primary screening (TSA) / delta Tm (K) |
| --- | --- |
| COc1cc(C=C(C(=O)NCC2CCCO2)C(=O)NCC2CCCO2)ccc1OCC(=O)Nc1ccc(C)cc1 (centres unmarked) | -0.08 |
| COc1cc(OC)c(OC)cc1C=C1C(=O)NC(=S)NC1=O | -0.22 |
| CC1CCc2c(sc3ncnc(N4CCC(C(N)=O)CC4)c23)C1 (centres unmarked) | 0.19 |
| CC1CCc2c(sc3ncnc(OCC(=O)N4CCc5ccccc54)c23)C1 (centres unmarked) | 0.12 |
| COc1ccccc1SCc1cc(=O)n2ccccc2n1 | -0.22 |
| CN(C)S(=O)(=O)c1cccc(NC(=S)NNc2ccnc3cc(Cl)ccc23)c1 | -0.18 |
| Cc1cccc(C(C)(C)CNC(=O)c2ccc3c(c2)NC(=O)CCN3C)c1 | -0.08 |
| Cn1cc(S(=O)(=O)Nc2ccc3c(c2)CCCN3Cc2ccccc2)cc1C(N)=O | -0.02 |
| c1ccc2c(c1)oc1c(N3CCC(n4ccnn4)CC3)ncnc12 | -0.23 |
| CCCOc1ccc(C(=O)C2=C(O)C(=O)N(CCN3CCOCC3)C2c2ccc(OC)cc2)cc1 (centres unmarked) | 0.02 |
| Cc1ccc2[nH]c3c(c2c1)CCCC3=O | -0.15 |
| Cc1c(C(=O)NC2CCCCCC2)oc2c1ccc1ccccc12 | -0.21 |
| COc1ccc(N2CC(=O)C(c3n(C)c4ccccc4[n+]3C)=C2N)cc1 | -0.02 |
| O=C(O)/C=C/c1nc2ccccc2s1 | 0.07 |
| CC(C)(C)CN | 0.06 |
| NC(=O)C1CCN(c2ncnc3ccsc23)CC1 | -0.08 |
| O=C(NOCCC(F)(F)F)c1ccc(-c2nnc(S)o2)cc1 | -0.11 |
| NC(=O)COC(=O)c1ccc(OCC(=O)Nc2cccc(C(F)(F)F)c2)cc1 | -0.02 |
| Cc1cc(-c2csc(NC(=O)c3ccc(NC(N)=O)cc3)n2)c(C)n1CCc1ccccc1 | 0.18 |
| N#Cc1ccc(Cl)cc1NC(=O)COC(=O)c1nc(-c2ccccc2)n(-c2ccccc2)n1 | 0.09 |
| CC(OC(=O)c1csc(-c2ccccc2)n1)C(=O)NCc1ccco1 (centres unmarked) | -0.14 |
| O=C1C(NCc2cscn2)CCCN1c1cccnc1 (centres unmarked) | -0.07 |
| Cc1ccc(Cn2nc(C)c(/C=C/C(=O)c3ccc(OC(C)C(=O)O)cc3)c2C)cc1 (centres unmarked) | -0.24 |
| Cc1cc(C)c(OC(=O)CCc2c(C)nc3c(C(N)=O)cnn3c2C)c(C)c1 | -0.05 |
| Cc1ccc(O)c(C(=O)N2CCC(=C3C(=O)Nc4ccccc43)CC2)c1 | 0.02 |
| O=C1NC(c2sc3ccccc3c2Cl)Nc2ccccc21 (centres unmarked) | -0.01 |

3 structures already listed, arranged by molecular weight, falling.

| Compound | TSA(without NAD+) / Primary screening (TSA) / delta Tm (K) |
| --- | --- |
| Cc1ccc(O)c(C(=O)N2CCC(=C3C(=O)Nc4ccccc43)CC2)c1 | 0.02 |
| COc1cc(OC)c(OC)cc1C=C1C(=O)NC(=S)NC1=O | -0.22 |
| Cc1c(C(=O)NC2CCCCCC2)oc2c1ccc1ccccc12 | -0.21 |
